Assay results as given in patent EP3479863B1, “COMPOSITIONS, METHODS AND ARTICLES CONCERNING PHARMACEUTICAL NITRIC OXIDE AND CONTROLLED PATIENT DELIVERY SYSTEMS THEREOF” (Mallinckrodt Pharmaceuticals Ireland Limited, priority 2010, dated 2012).

Experiment: NO release from powdered acids hit by single 50 nL sodium nitrite droplets, measured with NO analyzer
Settings: 50 nL droplet of 6M NaNO2; for Maximum peak concentration: Example 2, 7 mg finely ground powder per well; for AUC: Example 2, NO peak, 7 mg finely ground powder per well
Procedure: Powdered acids of different acidity (TABLE 1) and reducing capacity, or mixtures at equal weight ratios thereof, were tested for their ability to promote NO release from concentrated aqueous solutions of sodium nitrite. Acids were finely ground and about 5-7 mg placed into wells of a reaction plate contained within a reaction chamber equipped with a microvalve capable of dispensing single 50 nL liquid droplets of sodium nitrite into each well. The reaction chamber was continuously flushed with air at defined flow rates and the NO concentration in the air measured with a […]® NO Analyzer 280i. When NO concentrations exceeded the measurement range of the NO analyzer, the air stream was diluted with a nitrogen stream of defined flow rate prior to measurement and the measured NO concentration corrected for the dilution factor. 50 ml of 6M NaNO2 stock solution was prepared and degassed for 15 minutes. 10 mL of the stock solution was filled into a liquid reservoir feeding a microvalve capable of dispensing single 50 nL liquid droplets sequentially into each of six wells of a reaction plate contained within a reaction chamber. The air flow rate through the reaction chamber was set to 500 mL/minute. The air flow was diluted with nitrogen gas to a flow rate of 1586 mL/minute to allow measurement of the entire NO peak with a […]® NO Analyzer 280i. The NO analyzer was calibrated using a 45 ppm NO calibration gas prior to the experiment. […] The microvalve fired a 50 nL droplet into each well. The timecourse of NO production was measured with the NO Analyzer. The following time parameters were analyzed for each NO peak: AUC, time to reaching 90% of the AUC, and maximum peak NO concentration.

Work on O=C1O[C@H]([C@@H](O)CO)C(O)=C1O [Ascorbic Acid, reference compound] yielded a Maximum peak concentration of 156.4 ppm and an AUC of 304.16 ppm·sec.

With Croconic Acid the Maximum peak concentration was 711.5 ppm and the AUC was 313.2 ppm·sec.
